Assay results taken from the supplement of paper PMC11006884.
The targets with a hit were mostly taken out for another list; the other results follow. The data scatter; read single values as rough. Only a part is listed here, and it is no random draw.

Chains of the proteins cited; added tags and fusions are not shown. Lines headed by an entry give the natural chain unless they say otherwise; changes in a name come on top.
UniProt P50991: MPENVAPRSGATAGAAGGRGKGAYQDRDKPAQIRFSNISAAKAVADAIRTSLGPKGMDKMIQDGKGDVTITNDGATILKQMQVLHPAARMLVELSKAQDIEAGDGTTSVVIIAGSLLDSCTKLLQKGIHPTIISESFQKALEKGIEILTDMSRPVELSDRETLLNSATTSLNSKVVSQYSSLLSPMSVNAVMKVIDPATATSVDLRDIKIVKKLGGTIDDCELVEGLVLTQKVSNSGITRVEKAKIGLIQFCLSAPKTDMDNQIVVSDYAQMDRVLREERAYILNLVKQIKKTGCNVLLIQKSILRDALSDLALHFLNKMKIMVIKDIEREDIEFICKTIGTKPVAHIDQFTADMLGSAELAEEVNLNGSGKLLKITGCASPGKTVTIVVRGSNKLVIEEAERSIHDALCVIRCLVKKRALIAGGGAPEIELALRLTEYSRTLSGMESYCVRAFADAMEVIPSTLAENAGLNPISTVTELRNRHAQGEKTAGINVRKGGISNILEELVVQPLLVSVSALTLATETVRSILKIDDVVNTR
UniProt P49840: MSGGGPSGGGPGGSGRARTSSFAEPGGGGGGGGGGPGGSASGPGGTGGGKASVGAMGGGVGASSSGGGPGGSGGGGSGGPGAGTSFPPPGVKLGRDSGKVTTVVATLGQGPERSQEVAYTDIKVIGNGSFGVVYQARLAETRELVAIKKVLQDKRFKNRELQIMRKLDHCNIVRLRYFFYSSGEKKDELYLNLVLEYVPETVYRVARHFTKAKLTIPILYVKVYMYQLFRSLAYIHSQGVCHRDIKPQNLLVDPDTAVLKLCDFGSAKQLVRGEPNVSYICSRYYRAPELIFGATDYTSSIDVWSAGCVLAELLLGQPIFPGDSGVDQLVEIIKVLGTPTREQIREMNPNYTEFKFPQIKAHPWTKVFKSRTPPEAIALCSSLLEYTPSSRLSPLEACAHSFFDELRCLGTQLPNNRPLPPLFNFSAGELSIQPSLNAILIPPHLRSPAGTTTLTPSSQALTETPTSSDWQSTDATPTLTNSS
UniProt P51610: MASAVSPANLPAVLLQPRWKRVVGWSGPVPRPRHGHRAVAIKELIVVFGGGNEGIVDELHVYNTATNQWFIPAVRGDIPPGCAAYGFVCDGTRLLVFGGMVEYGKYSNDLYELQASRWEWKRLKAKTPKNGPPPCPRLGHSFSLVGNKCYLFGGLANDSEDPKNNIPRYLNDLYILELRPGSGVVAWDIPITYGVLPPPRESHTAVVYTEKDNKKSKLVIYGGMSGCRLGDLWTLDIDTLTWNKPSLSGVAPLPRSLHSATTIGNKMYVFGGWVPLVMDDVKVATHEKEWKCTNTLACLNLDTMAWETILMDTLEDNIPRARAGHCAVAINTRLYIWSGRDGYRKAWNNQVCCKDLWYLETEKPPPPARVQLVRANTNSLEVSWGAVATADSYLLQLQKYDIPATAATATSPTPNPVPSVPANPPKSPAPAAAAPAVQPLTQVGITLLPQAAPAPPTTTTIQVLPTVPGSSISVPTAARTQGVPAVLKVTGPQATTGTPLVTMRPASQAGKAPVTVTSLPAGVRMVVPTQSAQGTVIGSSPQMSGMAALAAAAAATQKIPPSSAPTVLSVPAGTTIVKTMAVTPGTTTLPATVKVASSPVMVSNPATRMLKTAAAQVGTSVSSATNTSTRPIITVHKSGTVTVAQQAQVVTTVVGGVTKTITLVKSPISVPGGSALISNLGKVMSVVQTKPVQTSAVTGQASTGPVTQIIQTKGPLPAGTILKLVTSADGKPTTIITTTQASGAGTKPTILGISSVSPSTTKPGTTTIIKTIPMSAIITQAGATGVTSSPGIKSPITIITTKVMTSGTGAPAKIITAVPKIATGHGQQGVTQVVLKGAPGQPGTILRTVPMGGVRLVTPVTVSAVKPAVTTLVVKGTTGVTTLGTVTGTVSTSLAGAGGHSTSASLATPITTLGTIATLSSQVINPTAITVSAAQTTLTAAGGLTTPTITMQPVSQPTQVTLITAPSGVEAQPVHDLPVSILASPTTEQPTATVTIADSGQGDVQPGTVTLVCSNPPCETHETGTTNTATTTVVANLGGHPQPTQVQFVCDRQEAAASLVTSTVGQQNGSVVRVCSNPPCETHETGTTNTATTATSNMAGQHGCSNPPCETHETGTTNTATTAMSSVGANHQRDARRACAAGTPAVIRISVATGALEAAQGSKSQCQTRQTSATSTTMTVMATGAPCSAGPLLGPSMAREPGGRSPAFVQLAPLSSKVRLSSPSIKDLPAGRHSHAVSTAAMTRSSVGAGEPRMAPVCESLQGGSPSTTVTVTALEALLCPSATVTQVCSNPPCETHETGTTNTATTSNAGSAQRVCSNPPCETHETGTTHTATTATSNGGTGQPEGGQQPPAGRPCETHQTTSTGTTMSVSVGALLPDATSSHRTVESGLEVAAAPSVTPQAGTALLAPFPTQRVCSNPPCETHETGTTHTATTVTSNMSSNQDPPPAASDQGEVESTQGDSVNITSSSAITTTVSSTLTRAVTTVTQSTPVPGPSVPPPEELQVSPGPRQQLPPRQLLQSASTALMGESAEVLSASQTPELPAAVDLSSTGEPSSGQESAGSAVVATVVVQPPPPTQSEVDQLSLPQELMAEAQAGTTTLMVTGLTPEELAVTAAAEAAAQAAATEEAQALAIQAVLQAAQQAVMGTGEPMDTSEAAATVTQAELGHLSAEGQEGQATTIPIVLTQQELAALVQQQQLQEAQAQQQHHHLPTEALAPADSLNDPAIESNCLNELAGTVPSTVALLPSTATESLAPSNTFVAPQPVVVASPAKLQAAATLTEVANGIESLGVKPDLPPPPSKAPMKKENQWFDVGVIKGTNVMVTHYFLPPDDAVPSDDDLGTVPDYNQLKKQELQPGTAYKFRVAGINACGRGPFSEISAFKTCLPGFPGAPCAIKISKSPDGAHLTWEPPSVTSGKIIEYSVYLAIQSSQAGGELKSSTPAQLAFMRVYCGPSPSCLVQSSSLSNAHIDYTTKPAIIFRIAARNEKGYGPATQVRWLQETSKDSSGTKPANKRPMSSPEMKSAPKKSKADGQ
UniProt P49821, whole entry, looked up: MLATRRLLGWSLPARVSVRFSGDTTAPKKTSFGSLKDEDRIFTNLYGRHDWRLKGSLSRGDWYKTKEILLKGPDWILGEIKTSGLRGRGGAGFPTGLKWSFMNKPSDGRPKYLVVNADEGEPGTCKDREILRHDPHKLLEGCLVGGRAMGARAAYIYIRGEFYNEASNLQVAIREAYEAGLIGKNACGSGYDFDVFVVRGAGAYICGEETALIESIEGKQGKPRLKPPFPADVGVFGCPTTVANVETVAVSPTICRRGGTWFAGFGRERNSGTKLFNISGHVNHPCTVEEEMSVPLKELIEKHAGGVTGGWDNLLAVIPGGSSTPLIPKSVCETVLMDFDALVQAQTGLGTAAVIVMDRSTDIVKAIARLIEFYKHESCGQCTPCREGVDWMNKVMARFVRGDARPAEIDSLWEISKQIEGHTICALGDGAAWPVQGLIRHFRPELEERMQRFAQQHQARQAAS
UniProt P45880: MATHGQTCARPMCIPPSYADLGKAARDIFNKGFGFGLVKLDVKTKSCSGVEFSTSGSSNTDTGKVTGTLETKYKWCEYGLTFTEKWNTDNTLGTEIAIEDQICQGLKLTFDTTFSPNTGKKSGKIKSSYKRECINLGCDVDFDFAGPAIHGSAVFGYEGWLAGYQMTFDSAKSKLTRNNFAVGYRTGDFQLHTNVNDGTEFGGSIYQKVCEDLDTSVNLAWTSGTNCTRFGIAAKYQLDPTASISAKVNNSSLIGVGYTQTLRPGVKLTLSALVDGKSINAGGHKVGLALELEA
UniProt P48634: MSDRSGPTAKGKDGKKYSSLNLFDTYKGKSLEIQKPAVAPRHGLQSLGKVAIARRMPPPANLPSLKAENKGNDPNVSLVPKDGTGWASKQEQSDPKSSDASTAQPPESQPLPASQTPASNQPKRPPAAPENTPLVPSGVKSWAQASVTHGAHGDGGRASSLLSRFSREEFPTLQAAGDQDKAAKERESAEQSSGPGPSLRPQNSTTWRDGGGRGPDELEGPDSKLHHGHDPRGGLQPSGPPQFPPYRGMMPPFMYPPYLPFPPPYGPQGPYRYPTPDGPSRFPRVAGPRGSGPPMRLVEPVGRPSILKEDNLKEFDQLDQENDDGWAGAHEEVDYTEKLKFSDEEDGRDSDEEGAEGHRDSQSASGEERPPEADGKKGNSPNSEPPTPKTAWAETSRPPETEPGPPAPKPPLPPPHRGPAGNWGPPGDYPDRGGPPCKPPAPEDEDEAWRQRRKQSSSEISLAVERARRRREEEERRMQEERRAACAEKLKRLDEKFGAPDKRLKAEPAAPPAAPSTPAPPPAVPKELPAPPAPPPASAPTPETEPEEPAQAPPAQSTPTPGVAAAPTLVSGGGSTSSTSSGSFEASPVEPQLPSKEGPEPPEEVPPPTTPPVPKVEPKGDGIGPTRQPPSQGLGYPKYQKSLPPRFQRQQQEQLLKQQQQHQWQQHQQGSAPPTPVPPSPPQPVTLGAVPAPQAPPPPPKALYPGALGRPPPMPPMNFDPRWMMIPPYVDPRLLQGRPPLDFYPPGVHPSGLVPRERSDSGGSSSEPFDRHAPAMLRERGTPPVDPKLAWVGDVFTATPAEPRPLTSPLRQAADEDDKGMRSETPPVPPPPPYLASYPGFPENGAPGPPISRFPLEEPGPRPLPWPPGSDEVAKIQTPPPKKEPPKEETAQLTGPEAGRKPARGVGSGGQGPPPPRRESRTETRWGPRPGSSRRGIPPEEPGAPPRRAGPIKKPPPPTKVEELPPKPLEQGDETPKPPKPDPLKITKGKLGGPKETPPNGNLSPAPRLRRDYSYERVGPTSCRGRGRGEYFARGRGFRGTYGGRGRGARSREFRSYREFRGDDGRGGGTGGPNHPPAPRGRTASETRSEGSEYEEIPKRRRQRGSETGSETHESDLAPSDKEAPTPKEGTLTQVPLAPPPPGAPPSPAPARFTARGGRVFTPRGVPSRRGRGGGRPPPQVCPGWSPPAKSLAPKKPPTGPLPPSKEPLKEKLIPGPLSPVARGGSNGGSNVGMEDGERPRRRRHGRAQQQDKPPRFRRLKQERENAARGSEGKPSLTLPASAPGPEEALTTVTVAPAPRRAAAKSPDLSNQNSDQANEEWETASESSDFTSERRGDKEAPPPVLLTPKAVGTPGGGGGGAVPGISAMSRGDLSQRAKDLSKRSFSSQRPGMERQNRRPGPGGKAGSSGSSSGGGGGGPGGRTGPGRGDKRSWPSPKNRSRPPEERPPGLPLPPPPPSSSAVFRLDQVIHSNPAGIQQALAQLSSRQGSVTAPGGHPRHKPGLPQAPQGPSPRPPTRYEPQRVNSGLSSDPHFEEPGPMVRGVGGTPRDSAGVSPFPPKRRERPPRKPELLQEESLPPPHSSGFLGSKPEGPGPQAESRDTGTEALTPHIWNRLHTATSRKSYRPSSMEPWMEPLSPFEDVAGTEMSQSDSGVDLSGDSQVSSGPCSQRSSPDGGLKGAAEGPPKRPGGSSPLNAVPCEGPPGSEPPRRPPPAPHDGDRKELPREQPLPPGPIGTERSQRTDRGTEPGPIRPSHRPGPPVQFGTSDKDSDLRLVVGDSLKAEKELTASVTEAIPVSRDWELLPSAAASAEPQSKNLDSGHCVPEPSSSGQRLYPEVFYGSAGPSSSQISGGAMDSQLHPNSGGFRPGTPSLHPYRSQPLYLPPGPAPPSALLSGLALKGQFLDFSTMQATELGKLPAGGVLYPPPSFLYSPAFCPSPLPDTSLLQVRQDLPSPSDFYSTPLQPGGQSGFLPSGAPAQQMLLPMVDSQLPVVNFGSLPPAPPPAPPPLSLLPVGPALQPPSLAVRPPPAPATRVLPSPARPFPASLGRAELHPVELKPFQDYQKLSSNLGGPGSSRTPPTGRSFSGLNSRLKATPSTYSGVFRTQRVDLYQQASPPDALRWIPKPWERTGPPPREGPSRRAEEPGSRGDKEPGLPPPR
UniProt P43490: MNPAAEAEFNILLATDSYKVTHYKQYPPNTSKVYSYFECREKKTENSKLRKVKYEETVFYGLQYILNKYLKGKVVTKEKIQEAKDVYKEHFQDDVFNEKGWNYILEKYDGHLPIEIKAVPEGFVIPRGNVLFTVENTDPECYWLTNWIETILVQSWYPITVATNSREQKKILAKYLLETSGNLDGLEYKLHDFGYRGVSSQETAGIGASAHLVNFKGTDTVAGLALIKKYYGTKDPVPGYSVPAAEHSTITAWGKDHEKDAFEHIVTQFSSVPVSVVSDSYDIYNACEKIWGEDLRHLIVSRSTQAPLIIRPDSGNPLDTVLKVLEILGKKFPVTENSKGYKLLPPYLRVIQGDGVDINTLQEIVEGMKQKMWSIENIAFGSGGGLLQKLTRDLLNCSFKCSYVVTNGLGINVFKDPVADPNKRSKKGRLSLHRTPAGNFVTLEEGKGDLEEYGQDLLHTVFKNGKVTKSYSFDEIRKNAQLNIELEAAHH

These targets were tested with COC(=O)/C=C/c1ccccc1 [methyl cinnamate] (assay: log2 ratio of iodoacetamide-alkyne labeling of the cysteine site, DMSO over compound (competition); higher = stronger covalent engagement of the cysteine by the compound, active = 1 or more). Conditions: 500 µM; treatment time 1 h; system: HEK293T cell lysate.
Procedure, shortened: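 After 1 h at ambient temperature with vehicle or electrophile (500 µM), HEK293T lysate (2 mg/mL) was labelled for 1 h with iodoacetamide alkyne and clicked to sCIP-TMT reagents. Pooled samples were trypsin-digested overnight at 37 °C, streptavidin-enriched, acid-eluted and analysed by Orbitrap Eclipse LC-MS/MS with FAIMS, then quantified in FragPipe over three replicates with duplicate channels. A cysteine's log2 competition ratio is its mean control-channel over mean compound-channel reporter intensity. Cysteines quantified in only one replicate were not included.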

log2 ratio of iodoacetamide-alkyne labeling, inactive:
QARS C657 (UniProt P47897) 0.138
MCM2 C315 (UniProt P49736) 0.272
CCT5 C253 (UniProt P48643) -0.00151
CCT3 C366 (UniProt P49368) 0.059
CCT4 C337 (UniProt P50991) 0.243
UniProt P49840_C380 0.198
HCFC1 C149 (UniProt P51610) 0.203
GMPS C456 (UniProt P49915) -0.00947
RPL14 C42 (UniProt P50914) 0.16
NT5C2 C181 (UniProt P49902) -0.0751
USP5 C195 (UniProt P45974) 0.192
SEPHS1 C71 (UniProt P49903) -0.027
RANGAP1 C82 (UniProt P46060) 0.174
PRIM2 C25 (UniProt P49643) -0.0916
MAP1B C190 (UniProt P46821) 0.119
ALDH7A1 C478 (UniProt P49419) 0.138
GPD2 C385 (UniProt P43304) 0.0364
NDUFV1 C187 (UniProt P49821) 0.11
NUP153 C1129 (UniProt P49790) 0.375
IDH3A C351 (UniProt P50213) 0.0711
VDAC2 C47 (UniProt P45880) 0.157
NSF C568 (UniProt P46459) 0.0569
PDLIM4 C44 (UniProt P50479) -0.229
CCT4 C252 (UniProt P50991) -0.13
PHKA1 C1082 (UniProt P46020) 0.479
UniProt P48634_C1821 0.186
GMPS C449 (UniProt P49915) 0.0813
FXR2 C270 (UniProt P51116) 0.238
CBX5 C133 (UniProt P45973) 0.312
ARCN1 C441 (UniProt P48444) 0.0745
RBM25 C132 (UniProt P49756) 0.128
NAMPT C397 (UniProt P43490) 0.0265
IRAK1 C43 (UniProt P51617) 0.169
RANBP2 C1196 (UniProt P49792) 0.248
UniProt P49841_C199 0.119
ME1 C556 (UniProt P48163) 0.043
MKI67 C2706 (UniProt P46013) 0.17

Random excerpt: 2 entries already listed.
log2 ratio of iodoacetamide-alkyne labeling, inactive:
VDAC2 C47 (UniProt P45880) 0.157
CCT4 C252 (UniProt P50991) -0.13
